The results in this text go back to US20180215833A1 (published 2018).

By UniProt entry, the sequences of proteins in these tests, tags left out. Residues count along the entry.
UniProt P16056, residues 25-929: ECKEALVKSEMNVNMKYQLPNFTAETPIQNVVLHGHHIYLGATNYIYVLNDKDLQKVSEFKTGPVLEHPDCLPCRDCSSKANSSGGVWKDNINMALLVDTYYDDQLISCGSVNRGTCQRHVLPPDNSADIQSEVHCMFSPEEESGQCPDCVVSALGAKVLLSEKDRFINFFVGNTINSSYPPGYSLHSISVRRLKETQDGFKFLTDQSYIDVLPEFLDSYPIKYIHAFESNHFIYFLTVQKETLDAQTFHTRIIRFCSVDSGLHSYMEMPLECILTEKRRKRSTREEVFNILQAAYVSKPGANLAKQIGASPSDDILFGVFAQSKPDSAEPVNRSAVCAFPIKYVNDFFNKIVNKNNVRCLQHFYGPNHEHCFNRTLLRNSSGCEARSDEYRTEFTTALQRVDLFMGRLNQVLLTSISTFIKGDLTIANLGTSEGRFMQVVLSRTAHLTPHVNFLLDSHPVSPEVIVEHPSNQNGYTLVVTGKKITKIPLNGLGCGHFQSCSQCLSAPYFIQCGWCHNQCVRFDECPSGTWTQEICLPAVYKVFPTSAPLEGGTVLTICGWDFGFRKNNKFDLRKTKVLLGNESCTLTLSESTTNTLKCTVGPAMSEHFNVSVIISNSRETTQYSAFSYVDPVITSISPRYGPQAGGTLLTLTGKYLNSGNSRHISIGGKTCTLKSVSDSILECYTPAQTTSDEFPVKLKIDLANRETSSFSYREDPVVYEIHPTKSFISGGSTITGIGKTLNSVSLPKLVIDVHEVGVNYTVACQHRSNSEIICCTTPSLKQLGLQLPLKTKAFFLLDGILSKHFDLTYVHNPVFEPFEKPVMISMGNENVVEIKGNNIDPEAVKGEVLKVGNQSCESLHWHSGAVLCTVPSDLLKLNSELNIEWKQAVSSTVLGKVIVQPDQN

Substitutions are numbered along the chain they refer to. Results are given in words; binding and its absence hold for the method and conditions named.

The experiment concerns the target mouse c-Met (R&D systems cat no: 527-ME) (mouse) (UniProt P16056). The experiment can be described thus: ELISA, mAb immobilised (2 µg/ml), mouse c-Met added, anti-His detection. On the technique in general: In an ELISA, binding on a coated surface is turned into a signal by an enzyme label.

B1: 40B8 (antibody, V domains shown)
VH: EVQLVQPGAELRNPGASVKVSCKASGYTFTNYVIDWVRQAPGQGLEWMGRIDPENGGTRYAQKFQGRVTFTADTSTSTAYVELSNLRSEDTAVYYCARLEDYELAYDYWGQGTQVTVSS
VL: DIVMTQTPSSVTASAGEKVTINCKSSQSVLLSSNQKNYLAWYQQRLGQSPRLLIYWASTRESGVPDRFSGSGSTTDFTLTISSFQPEDAAVYYCQQGVSFPLTFGQGTKVELK
As for B1, the binding entry is reported as “no binding (tested: 100 ng/ml mouse c-Met)”.

B2: 20A11 (antibody, V domains shown)
VH: QVQLVESGGGLVQPGGSLRLSCAASGFTFDDYAMSWVRQAPGKGLEWVSAISWNGSSTYYAESMKGRFTISRDNAKNTLYLQMNSLKSEDTAVYYCAKDLIGSHDYWGQGTQVTVSS
VL: QAVLTQPPSVSGTLGKTLTISCAGTSSDVGYGNYVSWYQQLPGTAPKLLIYAVSTRASGIPDRFSGSKSGNTASLTISGLQSEDEADYYCASYRSSNNYAFGAGTKLTVL
Consider B2, for which the binding entry was “no binding (tested: 100 ng/ml mouse c-Met)”.

B3: 36C4 (antibody, V domains shown)
VH: QVQLVESGPGLVKPSQTLSLTCAVSGGSITTNYYYWSWIRQSPGKGLEWMGVIAYDGSTDYSPSLKSRTSISRDTSKNQFSLQLSSVTPEDTAVYYCARDVRVIATGWATANALDAWGQGTLVTVSS
VL: QSVLTQPPSVSGSPGKTVTISCAGTSSDVGYGNYVSWYQQLPGTAPKLLIFAVSYRASGIPDRFSGSKSGNTAFLTISGLQSEDEADYYCASYRSSNNAAVFGGGTHLTVL
notes: also called mAb 36C4; SIMPLE antibody 36C4
Take B3: the binding entry is “no binding (tested: 100 ng/ml mouse c-Met)”.

B4: 38H10 (antibody, V domains shown)
VH: EVQLVQPGVELRNPGASVKVSCKASGYIFTMNSIDWVRQAPGQGLEWMGRIDPEDGGTKYAQKFQGRVTFTADTSTSTAYVELNSLRSEDTAVYYCARVDDYYLGYDYWGQGTQVTVSS
VL: EIVMTQSPSSVTASAGEKVTINCKSSQSVLWRSNQKNYLAWYQQRLGQSPRLLISWASIRESGVPDRFSGSGSTTDFTLTISSFQPEDAAVYYCQQGYSFPYTFGSGTRLEIK
Turning to B4, the binding entry is given as “no binding (tested: 100 ng/ml mouse c-Met)”.

B5: 13E6 (antibody, V domains shown)
VH: QVQLQESGGDLVQPGGSLRLSCAASGFTFDDYVMNWVRQAPGKGLEWISAINWNGGSTYYAESMKGRFTISRDNAKNTLYLQMYSLQSDDTAVYYCVKDTVVSGNGYWGQGTQVTVSS
VL: QSVLTQPPSVSGTLGKTVTISCAGTSSDIGDYNYVSWYQQLPGTAPKLLIYDVNKRASGIPDRFSGSKSGNTASLSISGLQSEDEADYYCASYRSRNDYAFGGGTKLTVL
notes: also called mAb 13E6
For the molecule B5, the binding entry is listed as “no binding (tested: 100 ng/ml mouse c-Met)”.

B6: 12G4 (antibody, V domains shown)
VH: QLQLVESGGGMAQPGGSLKLSCAASGFTFDDYAMTWVRQAPGKGLEWLSTISWNDINTYYAESMKDRFTISRDNAKNTLYLQMNSLESEDTAVYYCAKRRDNYYGTSGEYDYWGQGTQVTVSS
VL: B5 VL with V3A, D31N, D52E, A57P, R96S, D98N, Y99V, A100V
For the molecule B6, the binding result is listed as “no binding (tested: 100 ng/ml mouse c-Met)”.
